Source: paper PMC12344264, “Mechanistic, in-silico and in vitro studies with nitrofurans reveal potent leishmanicidal activity and inhibition of trypanothione reductase” (International Journal for Parasitology: Drugs and Drug …, 2025)

Sequences of proteins named here, by UniProt entry; tags and fusion partners are left off. A change or cut given only in a name is not applied to a line headed by its entry.
UniProt P39050: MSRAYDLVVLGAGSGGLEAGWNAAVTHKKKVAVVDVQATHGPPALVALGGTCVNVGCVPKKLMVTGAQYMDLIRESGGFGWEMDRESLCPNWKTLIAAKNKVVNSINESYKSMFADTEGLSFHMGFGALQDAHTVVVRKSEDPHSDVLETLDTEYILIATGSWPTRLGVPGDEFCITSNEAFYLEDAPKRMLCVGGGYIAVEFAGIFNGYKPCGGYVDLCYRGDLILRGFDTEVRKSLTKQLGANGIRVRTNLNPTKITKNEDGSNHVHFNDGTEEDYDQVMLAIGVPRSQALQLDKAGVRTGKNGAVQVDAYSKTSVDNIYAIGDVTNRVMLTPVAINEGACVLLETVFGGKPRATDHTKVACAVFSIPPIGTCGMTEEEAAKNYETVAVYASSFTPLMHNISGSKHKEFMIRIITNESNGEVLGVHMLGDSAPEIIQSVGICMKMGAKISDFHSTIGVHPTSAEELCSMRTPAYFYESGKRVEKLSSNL

Target: T1, L. donovani TryR (Leishmania donovani, UniProt P39050)
T1 construct: endogenous in cells; host or cells: L. donovani-iRFP (LV9) axenic amastigotes, crude cell extract
Experiment: biochemical
Description: The activity of L. donovani TryR was measured in the presence of different concentrations of nitrofurans according to the protocol previously described ([Melcón-Fernández et al., 2023]). Briefly, 1 × 10^10 L. donovani-iRFP axenic amastigotes were washed twice in PBS and lysed with a solution containing 1 mM EDTA, 40 mM HEPES, 50 mM Tris HCl pH 7.5, 2 % (v/v) Triton X-100 and Pierce™ Protease Inhibitors Mini Tablets (ThermoFisher Scientific, Waltham, MA, USA). Cell extracts were prepared by mechanical disruption of the cells with 0.5 mm diameter glass beads (Merck, Darmstadt, Germany) and the supernatant obtained by centrifugation at 10,000 rcf for 5 min at 4 °C was used to measure TryR activity in 96-well plates. […] Cell extracts diluted in Tris HCl pH 7.5 (0.43 μg of total protein in 50 μL) were added to launch the reaction. The negative control consisted of 2.5 % DMSO, whereas the blank reaction included the TryR assay solution without T [S]2. […] To determine steady-state conditions, enzymatic activity was measured at 412 nm (ε = 14,150 M^−1 cm^−1) for a period of up to 120 min (with 5 min intervals) at 26 °C in a Varioskan Lux spectrophotometer (ThermoFisher Scientific, Waltham, MA, USA). The experiment was carried out in triplicate and included three technical replicates.

Question: How did the Ki turn out when CSc1ccc2c(c1)N(CCC1CCCCN1C)c1ccccc1S2 (stereo not shown) [Thioridazine, thioridazine] was run?
Answer: 5.79 ± 0.82 µM
